Taken from: PubChem BioAssay AID686943 (Drosophila RNAi Screening Center, 2013)
The screen tested about 23,000 reagents; shown is an unselected part of those that have a named target and a result. 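Extra replicates exist only for a retested subset of genes; insulin dose and duration not given; both raised and lowered dpERK matter.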 Not given: the amount of reagent, the time to read-out.

- Test: 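Knockdowns that increase or decrease active ERK after insulin receptor stimulation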 (primary screen)
- Cells: Drosophila S2R+ haemocyte-like cells expressing YFP-tagged ERK (Rolled)
- Reagent: long dsRNA against Drosophila genes
- Treatment: insulin stimulation versus unstimulated cells; dose and duration not given
- Measurement: 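Antibody staining for doubly phosphorylated ERK divided by ERK-YFP signal, as plate z-scores, in insulin-treated and untreated cells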
- Direction: replicate 1, z-score of dpERK with insulin and replicate 2, z-score of dpERK with insulin: higher = more active ERK per ERK-YFP after insulin; replicate 1, z-score of dpERK under basal conditions: higher = more basal active ERK per ERK-YFP; replicate 1, z-score of ERK-YFP with insulin: higher = more YFP-tagged ERK signal

| gene | DRSC id | replicate 1, z-score of dpERK with insulin | replicate 2, z-score of dpERK with insulin | replicate 1, z-score of dpERK under basal conditions | replicate 1, z-score of ERK-YFP with insulin |
| --- | --- | --- | --- | --- | --- |
| CG5577 | DRSC10519 | 0.82 | -0.06 | 0.84 | 0.91 |
| CG33914 | DRSC05033 | -0.3 | -0.28 | -0.43 | -0.1 |
| CG33914 | DRSC05034 | 0.01 | -0.14 | -0.57 | -0.09 |
| SelT (Selenoprotein T) | DRSC02732 | -0.34 | -0.07 | -0.11 | 0.11 |
| CG43218 | DRSC11475 | -0.66 | 0.4 | 0.67 | -0.09 |
| CG12546 | DRSC11676 | -0.07 | 0.05 | -0.27 | -0.48 |
| CG9360 | DRSC20180 | 0.24 | -0.06 | 0.22 | 0.15 |
| Gcn2 | DRSC16678 | 0.29 | 0.18 | 0 | -0.2 |
| CG16798 | DRSC02517 | 0.67 | 0.88 | 1.48 | -0.4 |
| Nuak (Nuak family kinase) | DRSC14414 | 0.39 | 0.05 | 0.4 | -0.32 |
| Nuak (Nuak family kinase) | DRSC14415 | 0.13 | 0.37 | 0.4 | -0.21 |
| Nuak (Nuak family kinase) | DRSC14416 | 0.76 | 1.23 | 0.44 | -0.07 |
| Ski6 | DRSC02491 | 0.18 | 0.45 | 0.42 | -0.3 |
| CG5946 | DRSC10560 | -0.02 | -0.12 | -0.04 | 0.06 |
| CG42260 | DRSC04172 | 1.54 | 0.56 | -0.37 | -0.25 |
| CG42260 | DRSC04385 | 0.97 | 0.23 | 0.56 | -0.2 |
| Art8 (Arginine methyltransferase 8) | DRSC02530 | 0.21 | 0.09 | 0.73 | 0.73 |
| Nnk (Nicknack) | DRSC15274 | -0.12 | -0.09 | -1.15 | 1.67 |
| CG11125 | DRSC06042 | -0.23 | 0.13 | -0.2 | 0.27 |
| iav (inactive) | DRSC18363 | -0.41 | 0.32 | -0.51 | 0.96 |
| Acbp5 (Acyl-CoA binding protein 5) | DRSC10548 | 0.26 | -0.29 | -1.09 | 0.31 |
| CG11892 | DRSC14428 | -0.17 | -0.36 | -0.13 | -0.32 |
| CG3817 | DRSC15515 | -0.04 | 0.11 | -0.14 | -2.62 |

In a second layout: entries from further up
CG11125 [DRSC06042]: replicate 1, z-score of dpERK with insulin = -0.23; replicate 2, z-score of dpERK with insulin = 0.13; replicate 1, z-score of dpERK under basal conditions = -0.2; replicate 1, z-score of ERK-YFP with insulin = 0.27
iav (inactive) [DRSC18363]: replicate 1, z-score of dpERK with insulin = -0.41; replicate 2, z-score of dpERK with insulin = 0.32; replicate 1, z-score of dpERK under basal conditions = -0.51; replicate 1, z-score of ERK-YFP with insulin = 0.96
Acbp5 (Acyl-CoA binding protein 5) [DRSC10548]: replicate 1, z-score of dpERK with insulin = 0.26; replicate 2, z-score of dpERK with insulin = -0.29; replicate 1, z-score of dpERK under basal conditions = -1.09; replicate 1, z-score of ERK-YFP with insulin = 0.31
CG11892 [DRSC14428]: replicate 1, z-score of dpERK with insulin = -0.17; replicate 2, z-score of dpERK with insulin = -0.36; replicate 1, z-score of dpERK under basal conditions = -0.13; replicate 1, z-score of ERK-YFP with insulin = -0.32
